Laboratory results reported in publication PMC4858679.
No constants are given. Whether binding was seen depends on the method and setting. For some of these results: In cells and extracts the contact can be indirect. Some binding calls cover weakened binding; strength is not graded here. Blank lines part the entries; values can stand above or below the binder they belong to.

Assays:
[1] = target: T1, Proliferating cell nuclear antigen 1 from Thermococcus kodakarensis, wild type (Thermococcus kodakarensis) (UniProt Q5JF32); assay: SPR; Biacore J; TkoPCNA1 immobilised on a CM5 chip, TkoEndoQ injected (12-800 nM, 120 s); 25 °C; 10 mM HEPES pH 7.4, 0.4 M NaCl, 0.005% Tween20; 1:1 reaction model; apparent KD; both purified
T1 sequence: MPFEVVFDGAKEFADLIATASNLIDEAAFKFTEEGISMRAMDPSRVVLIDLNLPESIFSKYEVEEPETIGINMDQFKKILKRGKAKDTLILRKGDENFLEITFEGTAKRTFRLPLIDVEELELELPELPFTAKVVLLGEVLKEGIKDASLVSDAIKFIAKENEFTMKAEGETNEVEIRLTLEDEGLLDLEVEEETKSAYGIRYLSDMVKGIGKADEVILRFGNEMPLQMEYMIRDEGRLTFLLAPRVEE

[2] = target: TkoPCNA1 with the mutations E143A/D147A at the interface of the protomers (Thermococcus kodakarensis) (UniProt Q5JF32); assay: SEC; gel filtration of purified TkoPCNA1 proteins; 160 μM; both purified
[3] = target: T2, Endonuclease Q from Pyrococcus furiosus (Pyrococcus furiosus (endogenous in P. furiosus cells)) (UniProt Q8U0N5); assay: co-IP; extracts from exponentially growing P. furiosus cells; antibodies raised against TkoEndoQ and PfuPCNA
T2 sequence: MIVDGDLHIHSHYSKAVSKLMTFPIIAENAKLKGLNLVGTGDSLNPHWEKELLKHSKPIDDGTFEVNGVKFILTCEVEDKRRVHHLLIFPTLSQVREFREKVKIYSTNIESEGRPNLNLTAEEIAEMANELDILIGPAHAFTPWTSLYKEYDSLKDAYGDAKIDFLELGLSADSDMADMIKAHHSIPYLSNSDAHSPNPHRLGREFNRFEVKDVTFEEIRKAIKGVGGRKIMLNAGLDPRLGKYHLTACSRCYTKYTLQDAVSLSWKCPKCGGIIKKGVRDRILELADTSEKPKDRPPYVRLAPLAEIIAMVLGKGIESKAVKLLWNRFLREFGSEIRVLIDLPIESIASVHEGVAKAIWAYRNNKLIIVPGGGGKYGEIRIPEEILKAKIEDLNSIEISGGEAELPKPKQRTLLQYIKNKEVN

[4] = target: T3, Proliferating cell nuclear antigen from Pyrococcus furiosus (Pyrococcus furiosus (endogenous in P. furiosus cells)) (UniProt O73947); assay: as above
T3 sequence: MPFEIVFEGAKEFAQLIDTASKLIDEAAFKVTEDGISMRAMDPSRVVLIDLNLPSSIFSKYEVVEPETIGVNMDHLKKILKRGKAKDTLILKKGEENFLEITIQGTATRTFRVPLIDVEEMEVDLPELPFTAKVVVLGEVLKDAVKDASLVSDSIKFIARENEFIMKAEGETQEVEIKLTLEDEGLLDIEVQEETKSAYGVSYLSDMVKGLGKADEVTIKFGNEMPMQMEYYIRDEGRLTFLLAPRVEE

binding [1]: no binding (tested: 800 nM)
B1: Endonuclease Q from Thermococcus kodakarensis with truncation of the C-terminal PIP-box-like sequence (deletion of residues 409-421) (domain or fragment, UniProt Q5JI33 1-408)
chain: MIVDADLHIHSRYSKAVSKAMTIPNLAENARFKGLEMVGTGDILNPNWEKELLKYTKKVDEGTYERNGIRFLLTTEVEDTRRVHHVLIFPNIETVREMRERLKPYSSDIESEGRPHLTLSAAEIADIANELDVLIGPAHAFTPWTSLYKEYDSLKEAYNGAKIHFLELGLSADSEMADMIKAHHKLTYLSNSDAHSPMPHRLGREFNRFEVNEATFEEIRKAILKRGRKIVLNAGLDPRLGKYHLTACSRCYTKYSLEEAKAFRWKCPKCGGRIKKGVRDRILELADTTERPKDRPPYLHLAPLAEIIAMVLGKGVETKAVRLVWERFLREFGSEIRVLVDVPVEELAKVHEEVAKAVWAYRKGKLIVISGGGGKYGEIKLPDEVRNARIEDLETIEVEVPNVEEKPK

binding [2]: no binding (tested: 160 μM)
B2: TkoPCNA1 with the mutations E143A/D147A at the interface of the protomers (protein, UniProt Q5JF32 1-249)
chain: MPFEVVFDGAKEFADLIATASNLIDEAAFKFTEEGISMRAMDPSRVVLIDLNLPESIFSKYEVEEPETIGINMDQFKKILKRGKAKDTLILRKGDENFLEITFEGTAKRTFRLPLIDVEELELELPELPFTAKVVLLGEVLKAGIKAASLVSDAIKFIAKENEFTMKAEGETNEVEIRLTLEDEGLLDLEVEEETKSAYGIRYLSDMVKGIGKADEVILRFGNEMPLQMEYMIRDEGRLTFLLAPRVEE

binding [3]: binds
B3: Proliferating cell nuclear antigen from Pyrococcus furiosus (protein, UniProt O73947 1-249)
chain: MPFEIVFEGAKEFAQLIDTASKLIDEAAFKVTEDGISMRAMDPSRVVLIDLNLPSSIFSKYEVVEPETIGVNMDHLKKILKRGKAKDTLILKKGEENFLEITIQGTATRTFRVPLIDVEEMEVDLPELPFTAKVVVLGEVLKDAVKDASLVSDSIKFIARENEFIMKAEGETQEVEIKLTLEDEGLLDIEVQEETKSAYGVSYLSDMVKGLGKADEVTIKFGNEMPMQMEYYIRDEGRLTFLLAPRVEE

binding [4]: binds
B4: Endonuclease Q from Pyrococcus furiosus (enzyme, UniProt Q8U0N5 1-424)
chain: MIVDGDLHIHSHYSKAVSKLMTFPIIAENAKLKGLNLVGTGDSLNPHWEKELLKHSKPIDDGTFEVNGVKFILTCEVEDKRRVHHLLIFPTLSQVREFREKVKIYSTNIESEGRPNLNLTAEEIAEMANELDILIGPAHAFTPWTSLYKEYDSLKDAYGDAKIDFLELGLSADSDMADMIKAHHSIPYLSNSDAHSPNPHRLGREFNRFEVKDVTFEEIRKAIKGVGGRKIMLNAGLDPRLGKYHLTACSRCYTKYTLQDAVSLSWKCPKCGGIIKKGVRDRILELADTSEKPKDRPPYVRLAPLAEIIAMVLGKGIESKAVKLLWNRFLREFGSEIRVLIDLPIESIASVHEGVAKAIWAYRNNKLIIVPGGGGKYGEIRIPEEILKAKIEDLNSIEISGGEAELPKPKQRTLLQYIKNKEVN
